Results are given in words; binding and its absence hold for the method and conditions named. Some entries that bind do so weakly or less than the wild type.
Biological target: Cynomolgus Macaque PD-L1 (Cynomolgus Macaque) (UniProt G7PSE7)
Experiment: Gator instrument; summary of Table 7

In the case of BJ-005-P1 (from UniProt P0DOX7 1-214), the binding is reported as “binds”.

Reference: patent US20240158504A1
